From the supplement of paper PMC10849652
This is one part of the list.

Protein sequences, listed by entry. Tags and fused reporters are not part of them. Lines headed by an entry give the natural chain unless they say otherwise; changes in a name come on top.
UniProt Q9NYV6: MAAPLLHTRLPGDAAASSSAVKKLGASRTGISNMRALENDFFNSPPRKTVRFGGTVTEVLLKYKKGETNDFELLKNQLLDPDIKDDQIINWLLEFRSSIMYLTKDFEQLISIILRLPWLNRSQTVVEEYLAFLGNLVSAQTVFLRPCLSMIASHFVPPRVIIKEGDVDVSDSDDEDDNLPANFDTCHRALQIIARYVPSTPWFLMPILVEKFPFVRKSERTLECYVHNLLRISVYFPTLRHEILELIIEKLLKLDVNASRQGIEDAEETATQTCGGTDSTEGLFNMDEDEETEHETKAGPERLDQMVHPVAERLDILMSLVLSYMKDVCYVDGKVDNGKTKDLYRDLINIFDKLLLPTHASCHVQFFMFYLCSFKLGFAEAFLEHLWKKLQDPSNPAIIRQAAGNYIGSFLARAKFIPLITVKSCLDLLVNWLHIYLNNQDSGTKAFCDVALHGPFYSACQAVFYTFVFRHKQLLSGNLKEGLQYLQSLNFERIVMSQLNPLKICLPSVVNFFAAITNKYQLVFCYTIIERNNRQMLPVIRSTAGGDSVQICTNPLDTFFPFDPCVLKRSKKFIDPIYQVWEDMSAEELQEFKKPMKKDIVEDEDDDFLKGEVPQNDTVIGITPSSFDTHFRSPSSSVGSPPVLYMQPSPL
UniProt Q9NQG5: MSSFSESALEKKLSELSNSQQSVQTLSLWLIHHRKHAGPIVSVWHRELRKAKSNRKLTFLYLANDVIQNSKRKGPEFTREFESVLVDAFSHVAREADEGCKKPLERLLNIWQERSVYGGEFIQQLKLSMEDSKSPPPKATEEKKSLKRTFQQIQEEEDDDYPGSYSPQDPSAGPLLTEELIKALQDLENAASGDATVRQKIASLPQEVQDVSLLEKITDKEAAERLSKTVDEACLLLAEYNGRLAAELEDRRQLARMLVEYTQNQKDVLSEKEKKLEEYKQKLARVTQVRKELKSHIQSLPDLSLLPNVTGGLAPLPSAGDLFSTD
UniProt Q96DX4: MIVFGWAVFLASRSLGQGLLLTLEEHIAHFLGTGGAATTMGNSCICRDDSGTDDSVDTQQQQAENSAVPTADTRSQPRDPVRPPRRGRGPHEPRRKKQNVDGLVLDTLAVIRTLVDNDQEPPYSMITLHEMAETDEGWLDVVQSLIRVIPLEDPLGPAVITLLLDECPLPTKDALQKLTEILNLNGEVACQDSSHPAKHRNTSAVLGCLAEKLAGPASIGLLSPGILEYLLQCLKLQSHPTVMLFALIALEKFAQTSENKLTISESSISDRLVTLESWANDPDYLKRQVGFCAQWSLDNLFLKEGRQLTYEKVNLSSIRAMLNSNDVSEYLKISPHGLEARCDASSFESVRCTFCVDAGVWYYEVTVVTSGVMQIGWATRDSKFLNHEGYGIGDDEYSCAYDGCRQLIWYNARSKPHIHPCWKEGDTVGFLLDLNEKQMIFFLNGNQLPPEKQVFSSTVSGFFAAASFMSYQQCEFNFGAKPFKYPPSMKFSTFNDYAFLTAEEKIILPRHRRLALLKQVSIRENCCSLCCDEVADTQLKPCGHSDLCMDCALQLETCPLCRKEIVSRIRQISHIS
UniProt Q96T51: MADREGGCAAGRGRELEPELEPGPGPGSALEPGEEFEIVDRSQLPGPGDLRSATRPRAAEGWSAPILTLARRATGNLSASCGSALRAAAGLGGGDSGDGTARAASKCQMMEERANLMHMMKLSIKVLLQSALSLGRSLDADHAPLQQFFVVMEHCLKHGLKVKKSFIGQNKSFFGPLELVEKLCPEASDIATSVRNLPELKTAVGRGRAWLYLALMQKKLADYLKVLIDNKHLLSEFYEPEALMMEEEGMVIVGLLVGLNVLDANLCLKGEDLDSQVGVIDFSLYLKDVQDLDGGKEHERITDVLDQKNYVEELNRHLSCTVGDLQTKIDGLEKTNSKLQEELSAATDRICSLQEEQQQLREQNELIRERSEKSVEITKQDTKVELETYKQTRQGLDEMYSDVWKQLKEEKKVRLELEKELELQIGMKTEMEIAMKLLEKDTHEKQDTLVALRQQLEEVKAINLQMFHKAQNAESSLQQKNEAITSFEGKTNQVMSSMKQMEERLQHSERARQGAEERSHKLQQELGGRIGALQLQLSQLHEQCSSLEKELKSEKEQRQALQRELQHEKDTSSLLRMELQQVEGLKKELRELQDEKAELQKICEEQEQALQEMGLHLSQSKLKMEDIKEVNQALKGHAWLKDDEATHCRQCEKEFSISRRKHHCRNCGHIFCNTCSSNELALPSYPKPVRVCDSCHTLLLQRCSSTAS
UniProt Q15418, whole entry, looked up: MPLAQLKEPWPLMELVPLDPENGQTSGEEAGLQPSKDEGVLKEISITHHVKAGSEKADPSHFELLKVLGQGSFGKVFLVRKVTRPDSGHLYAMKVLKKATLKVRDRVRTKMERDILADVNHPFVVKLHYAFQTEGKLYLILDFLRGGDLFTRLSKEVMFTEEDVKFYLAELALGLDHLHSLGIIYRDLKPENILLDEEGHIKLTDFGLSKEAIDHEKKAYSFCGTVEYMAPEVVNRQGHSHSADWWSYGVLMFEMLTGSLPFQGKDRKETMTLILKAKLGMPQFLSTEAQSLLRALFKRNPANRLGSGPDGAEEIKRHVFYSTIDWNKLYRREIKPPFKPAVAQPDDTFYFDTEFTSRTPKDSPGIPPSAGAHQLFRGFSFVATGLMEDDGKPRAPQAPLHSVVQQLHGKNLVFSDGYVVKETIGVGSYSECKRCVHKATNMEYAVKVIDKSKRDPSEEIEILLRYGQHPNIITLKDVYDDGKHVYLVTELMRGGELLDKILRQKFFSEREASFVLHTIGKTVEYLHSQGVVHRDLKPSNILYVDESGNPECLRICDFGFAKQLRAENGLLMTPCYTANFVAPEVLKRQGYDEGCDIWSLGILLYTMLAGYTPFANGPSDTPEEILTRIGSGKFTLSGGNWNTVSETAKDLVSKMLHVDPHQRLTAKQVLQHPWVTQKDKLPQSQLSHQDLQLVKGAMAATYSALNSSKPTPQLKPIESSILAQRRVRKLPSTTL
UniProt Q9BY42: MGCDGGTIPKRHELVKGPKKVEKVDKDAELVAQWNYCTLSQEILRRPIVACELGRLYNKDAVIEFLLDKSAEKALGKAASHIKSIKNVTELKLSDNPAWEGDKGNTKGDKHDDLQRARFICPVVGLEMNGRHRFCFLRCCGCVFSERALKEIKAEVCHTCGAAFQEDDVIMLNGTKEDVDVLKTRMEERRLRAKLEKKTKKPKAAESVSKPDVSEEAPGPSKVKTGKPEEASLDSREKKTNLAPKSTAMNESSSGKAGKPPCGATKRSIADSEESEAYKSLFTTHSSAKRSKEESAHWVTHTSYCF
UniProt P10301: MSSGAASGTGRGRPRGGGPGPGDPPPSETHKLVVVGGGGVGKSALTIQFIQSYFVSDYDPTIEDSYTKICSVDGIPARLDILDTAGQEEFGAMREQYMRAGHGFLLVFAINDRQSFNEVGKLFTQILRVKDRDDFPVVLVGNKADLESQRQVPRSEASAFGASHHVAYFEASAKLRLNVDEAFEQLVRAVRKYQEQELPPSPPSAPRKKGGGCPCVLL
UniProt Q96P16: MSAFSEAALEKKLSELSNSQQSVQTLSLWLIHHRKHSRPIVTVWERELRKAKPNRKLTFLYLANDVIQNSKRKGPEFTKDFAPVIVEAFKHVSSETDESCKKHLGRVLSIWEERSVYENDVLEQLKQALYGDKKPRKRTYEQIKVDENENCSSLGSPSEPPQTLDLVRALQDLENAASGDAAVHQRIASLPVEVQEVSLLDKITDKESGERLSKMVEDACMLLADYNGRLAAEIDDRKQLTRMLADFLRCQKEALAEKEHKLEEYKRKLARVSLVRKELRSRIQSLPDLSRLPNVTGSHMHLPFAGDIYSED
UniProt Q8N5L8: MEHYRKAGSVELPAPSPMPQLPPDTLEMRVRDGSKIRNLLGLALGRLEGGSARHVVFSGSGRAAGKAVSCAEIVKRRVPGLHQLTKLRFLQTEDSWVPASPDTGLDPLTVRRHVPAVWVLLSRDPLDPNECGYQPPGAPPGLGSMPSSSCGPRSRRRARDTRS
UniProt Q5JTH9: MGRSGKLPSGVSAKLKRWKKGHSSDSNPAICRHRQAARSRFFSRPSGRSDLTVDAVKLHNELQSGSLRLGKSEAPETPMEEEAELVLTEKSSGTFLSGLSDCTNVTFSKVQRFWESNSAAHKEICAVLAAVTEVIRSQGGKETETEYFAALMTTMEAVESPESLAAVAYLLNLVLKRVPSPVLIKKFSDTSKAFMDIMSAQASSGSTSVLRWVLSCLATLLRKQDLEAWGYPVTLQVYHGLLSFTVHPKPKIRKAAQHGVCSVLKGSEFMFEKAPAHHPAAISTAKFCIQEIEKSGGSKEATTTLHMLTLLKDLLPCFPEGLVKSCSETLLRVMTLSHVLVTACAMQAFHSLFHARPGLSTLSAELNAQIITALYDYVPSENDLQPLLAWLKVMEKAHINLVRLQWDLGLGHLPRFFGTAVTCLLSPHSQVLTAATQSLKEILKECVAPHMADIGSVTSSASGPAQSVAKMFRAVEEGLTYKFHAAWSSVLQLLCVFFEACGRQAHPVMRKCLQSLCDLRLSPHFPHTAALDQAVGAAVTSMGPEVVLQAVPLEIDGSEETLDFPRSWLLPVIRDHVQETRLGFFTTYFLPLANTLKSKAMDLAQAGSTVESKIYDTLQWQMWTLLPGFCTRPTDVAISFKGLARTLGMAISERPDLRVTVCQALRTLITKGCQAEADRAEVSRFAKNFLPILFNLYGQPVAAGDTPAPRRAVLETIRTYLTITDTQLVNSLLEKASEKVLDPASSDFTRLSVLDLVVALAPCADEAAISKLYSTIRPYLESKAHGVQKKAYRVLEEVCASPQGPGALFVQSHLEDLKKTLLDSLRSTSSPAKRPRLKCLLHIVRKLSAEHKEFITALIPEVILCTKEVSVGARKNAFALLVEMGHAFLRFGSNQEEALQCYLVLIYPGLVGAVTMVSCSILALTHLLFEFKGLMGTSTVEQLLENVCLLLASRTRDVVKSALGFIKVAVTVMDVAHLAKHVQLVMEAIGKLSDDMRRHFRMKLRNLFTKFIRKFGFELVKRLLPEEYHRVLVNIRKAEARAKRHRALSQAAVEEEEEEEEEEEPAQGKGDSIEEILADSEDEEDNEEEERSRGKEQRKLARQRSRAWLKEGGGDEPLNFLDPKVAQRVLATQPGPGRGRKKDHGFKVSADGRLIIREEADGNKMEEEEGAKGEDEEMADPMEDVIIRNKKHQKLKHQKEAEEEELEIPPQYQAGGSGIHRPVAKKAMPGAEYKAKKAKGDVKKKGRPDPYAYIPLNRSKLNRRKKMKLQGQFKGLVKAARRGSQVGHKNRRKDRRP
UniProt P04843: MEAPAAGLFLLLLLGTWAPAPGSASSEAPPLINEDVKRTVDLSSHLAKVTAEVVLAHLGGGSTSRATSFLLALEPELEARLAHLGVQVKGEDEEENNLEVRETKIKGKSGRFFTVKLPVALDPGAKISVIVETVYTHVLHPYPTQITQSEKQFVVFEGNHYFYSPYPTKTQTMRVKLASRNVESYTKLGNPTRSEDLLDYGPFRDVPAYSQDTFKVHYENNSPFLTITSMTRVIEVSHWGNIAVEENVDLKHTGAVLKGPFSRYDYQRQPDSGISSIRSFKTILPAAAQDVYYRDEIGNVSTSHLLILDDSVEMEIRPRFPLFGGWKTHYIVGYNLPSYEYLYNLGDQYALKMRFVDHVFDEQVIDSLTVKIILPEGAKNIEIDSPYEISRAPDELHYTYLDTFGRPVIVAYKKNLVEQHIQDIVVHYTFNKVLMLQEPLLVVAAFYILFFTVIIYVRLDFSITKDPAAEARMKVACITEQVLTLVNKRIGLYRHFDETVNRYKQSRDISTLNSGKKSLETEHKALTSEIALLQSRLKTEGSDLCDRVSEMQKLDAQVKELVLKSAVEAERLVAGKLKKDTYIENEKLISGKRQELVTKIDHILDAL

Legend:
Experiment in all cases: log2 fold change, soluble protein after heating vs DMSO (PISA); higher = thermal stabilisation; K562 lysate, 10 uM; active = over 0.2 and 3.5 SD of the protein, either way, in both replicates (recomputed)
lapatinib = compound: CS(=O)(=O)CCNCc1ccc(-c2ccc3ncnc(Nc4ccc(OCc5cccc(F)c5)c(Cl)c4)c3c2)o1 [lapatinib]
Procedure, shortened: (§1)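 Thermal stability, expressed as log-two fold change relative to solvent controls, is given from duplicates. Crude K562 extract in PBS pH 7.4 with 1 mM MgCl2, at 1 mg/mL protein, was treated with 10 μM compound for 30 min and heated in aliquots for 3 min across 48°C-58°C. After pooling, adjustment to 0.5% NP-40 at 4°C and centrifugation at 21,000xg for 90 min, supernatant protein was measured by TMTpro 16plex LC-MS/MS with channel sums equalised.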

pictilisib = compound: CS(=O)(=O)N1CCN(Cc2cc3nc(-c4cccc5[nH]ncc45)nc(N4CCOCC4)c3s2)CC1 [pictilisib]
Procedure, shortened: as §1

crizotinib = compound: C[C@@H](Oc1cc(-c2cnn(C3CCNCC3)c2)cnc1N)c1c(Cl)ccc(F)c1Cl [crizotinib]
Procedure, shortened: as §1

[1] = compound: C[C@H](C1=CC=C(C=C1)C(=O)NC2=C3C=CNC3=NC=C2)N
Procedure, shortened: as §1

duvelisib = compound: C[C@H](Nc1ncnc2nc[nH]c12)c1cc2cccc(Cl)c2c(=O)n1-c1ccccc1 [duvelisib]
Procedure, shortened: as §1

gandotinib = compound: Cc1cc(Nc2cc(CN3CCOCC3)c3nc(C)c(Cc4ccc(Cl)cc4F)n3n2)n[nH]1 [gandotinib]
Procedure, shortened: as §1

tozasertib = compound: Cc1cc(Nc2cc(N3CCN(C)CC3)nc(Sc3ccc(NC(=O)C4CC4)cc3)n2)n[nH]1 [tozasertib]
Procedure, shortened: as §1

doramapimod = compound: Cc1ccc(-n2nc(C(C)(C)C)cc2NC(=O)Nc2ccc(OCCN3CCOCC3)c3ccccc23)cc1 [doramapimod]
Procedure, shortened: as §1

bafetinib = compound: Cc1ccc(NC(=O)c2ccc(CN3CC[C@H](N(C)C)C3)c(C(F)(F)F)c2)cc1Nc1nccc(-c2cncnc2)n1 [bafetinib]
Procedure, shortened: as §1

[2] = compound: Cc1cccc(CC(=O)N2CCc3c2ccc(-c2cn(C)c4ncnc(N)c24)c3F)n1
Procedure, shortened: as §1

nilotinib = compound: Cc1cn(-c2cc(NC(=O)c3ccc(C)c(Nc4nccc(-c5cccnc5)n4)c3)cc(C(F)(F)F)c2)cn1 [nilotinib]
Procedure, shortened: as §1

[3] = compound: Cc1nc(Nc2n[nH]c3c2CN(C(=O)N[C@H](CN(C)C)c2ccccc2)C3(C)C)c2sccc2n1
Procedure, shortened: as §1

dasatinib = compound: Cc1nc(Nc2ncc(C(=O)Nc3c(C)cccc3Cl)s2)cc(N2CCN(CCO)CC2)n1 [dasatinib]
Procedure, shortened: as §1

[4] = compound: Cc1ncc(-c2ccnc(Nc3ccc(S(C)(=O)=O)cc3)n2)n1C(C)C
Procedure, shortened: as §1

[5] = compound: Cn1cc(-c2ccc3c(c2)CCN3C(=O)Cc2cccc(C(F)(F)F)c2)c2c(N)ncnc21
Procedure, shortened: as §1

quisinostat = compound: Cn1cc(CNCC2CCN(c3ncc(C(=O)NO)cn3)CC2)c2ccccc21 [quisinostat]
Procedure, shortened: as §1

tipifarnib = compound: Cn1cncc1[C@@](N)(c1ccc(Cl)cc1)c1ccc2c(c1)c(-c1cccc(Cl)c1)cc(=O)n2C [tipifarnib]
Procedure, shortened: as §1

[6] = compound: NC(=O)Nc1cc(-c2cccc(F)c2)sc1C(=O)N[C@H]1CCCNC1
Procedure, shortened: as §1

[7] = compound: NC(=O)c1cnc(N[C@@H]2CCCC[C@@H]2N)nc1Nc1cccc(-n2nccn2)c1
Procedure, shortened: as §1

[8] = compound: NC1(c2ccc(-c3nc4ccn5c(=O)[nH]nc5c4cc3-c3ccccc3)cc2)CCC1
Procedure, shortened: as §1

Measured: log2 fold change

RRN3 (UniProt Q9NYV6)
inactive: lapatinib -0.237 | pictilisib -0.126 | crizotinib -0.1 | [1] 0.058 | duvelisib -0.004 | gandotinib 0.005 | tozasertib 0.152 | doramapimod 0.042 | bafetinib 0.058 | [2] -0.111 | nilotinib -0.02 | [3] 0.06 | dasatinib -0.169 | [4] 0.185 | [5] 0 | quisinostat -0.109 | tipifarnib 0.156 | [6] -0.039 | [7] 0.084

RPRD1B (UniProt Q9NQG5)
inactive: lapatinib 0.009 | pictilisib 0.037 | crizotinib 0.078 | [1] -0.037 | duvelisib -0.016 | gandotinib 0.002 | tozasertib -0.01 | doramapimod 0.012 | bafetinib -0.059 | [2] 0 | nilotinib -0.016 | [3] -0.033 | dasatinib 0.006 | [4] -0.071 | [5] 0.007 | quisinostat 0.135 | tipifarnib 0 | [6] -0.031 | [7] 0.006 | [8] 0.084

RPS13 (UniProt P62277)
inactive: lapatinib -0.01 | pictilisib 0.012 | crizotinib 0 | [1] 0.123 | duvelisib 0.011 | gandotinib -0.083 | tozasertib 0.061 | doramapimod -0.024 | bafetinib 0.017 | [2] -0.086 | nilotinib -0.021 | [3] -0.024 | dasatinib 0.004 | [4] -0.028 | [5] 0.046 | quisinostat 0.053 | tipifarnib 0.022 | [6] 0.007 | [7] 0.005 | [8] 0.05

RPS23 (UniProt P62266)
inactive: lapatinib -0.009 | pictilisib 0 | crizotinib 0.007 | [1] 0.097 | duvelisib 0.018 | gandotinib -0.035 | tozasertib -0.03 | doramapimod -0.011 | bafetinib -0.006 | [2] -0.041 | nilotinib 0.005 | [3] -0.027 | dasatinib 0.013 | [4] -0.015 | [5] -0.02 | quisinostat 0.017 | tipifarnib 0.021 | [6] 0.006 | [7] -0.018 | [8] -0.006

RSPRY1 (UniProt Q96DX4)
inactive: lapatinib -0.031 | pictilisib -0.007 | crizotinib -0.009 | [1] -0.085 | duvelisib 0.042 | gandotinib 0.032 | tozasertib -0.002 | doramapimod -0.003 | bafetinib -0.04 | [2] 0.088 | nilotinib 0.058 | [3] -0.07 | dasatinib -0.029 | [4] 0.062 | [5] 0.048 | quisinostat -0.034 | tipifarnib -0.168 | [6] -0.02 | [7] -0.03 | [8] -0.019

RUFY1 (UniProt Q96T51)
inactive: lapatinib -0.008 | pictilisib -0.011 | crizotinib -0.013 | [1] -0.011 | duvelisib 0.017 | gandotinib -0.041 | tozasertib 0.002 | doramapimod 0.012 | bafetinib -0.018 | [2] 0.028 | nilotinib -0.017 | [3] 0.018 | dasatinib -0.003 | [4] -0.01 | [5] 0.022 | quisinostat -0.018 | tipifarnib -0.036 | [6] 0.013 | [7] 0.028 | [8] -0.009

RPS6KA1 (UniProt Q15418)
inactive: lapatinib -0.067 | pictilisib 0.08 | crizotinib -0.043 | [1] 0.007 | duvelisib 0.008 | gandotinib 0.05 | tozasertib 0.165 | doramapimod -0.039 | bafetinib -0.135 | [2] -0.172 | nilotinib -0.037 | [3] 0.204 | dasatinib -0.113 | [4] 0.078 | [5] 0.031 | quisinostat -0.045 | tipifarnib 0.002 | [6] 0.256 | [7] 0.093 | [8] -0.028

RPS12 (UniProt P25398)
inactive: lapatinib -0.005 | pictilisib 0.02 | crizotinib 0.02 | [1] 0.059 | duvelisib 0.003 | gandotinib -0.034 | tozasertib -0.005 | doramapimod -0.04 | bafetinib 0.065 | [2] -0.012 | nilotinib -0.013 | [3] -0.011 | dasatinib 0.006 | [4] 0.022 | [5] 0.007 | quisinostat 0.052 | tipifarnib 0.009 | [6] -0.046 | [7] -0.007 | [8] 0.019

RTF2 (UniProt Q9BY42)
inactive: lapatinib 0.075 | pictilisib -0.123 | crizotinib 0.033 | [1] 0.016 | duvelisib 0.02 | gandotinib -0.079 | tozasertib 0.032 | doramapimod -0.02 | bafetinib -0.011 | [2] 0.001 | nilotinib -0.052 | [3] -0.022 | dasatinib -0.027 | [4] 0.003 | [5] 0.043 | quisinostat -0.017 | tipifarnib -0.002 | [6] -0.031 | [7] -0.176 | [8] 0.042

RRAS (UniProt P10301)
inactive: lapatinib -0.078 | pictilisib -0.01 | crizotinib 0.011 | [1] -0.07 | duvelisib -0.022 | gandotinib -0.032 | tozasertib 0.013 | doramapimod 0.027 | bafetinib -0.028 | [2] -0.01 | nilotinib -0.007 | [3] -0.006 | dasatinib 0.018 | [4] -0.001 | [5] -0.02 | quisinostat 0.009 | tipifarnib -0.008 | [6] 0.025 | [7] 0.005 | [8] 0

Two successive entries already listed, for reference:
RTF2 (UniProt Q9BY42)
inactive: lapatinib 0.075 | pictilisib -0.123 | crizotinib 0.033 | [1] 0.016 | duvelisib 0.02 | gandotinib -0.079 | tozasertib 0.032 | doramapimod -0.02 | bafetinib -0.011 | [2] 0.001 | nilotinib -0.052 | [3] -0.022 | dasatinib -0.027 | [4] 0.003 | [5] 0.043 | quisinostat -0.017 | tipifarnib -0.002 | [6] -0.031 | [7] -0.176 | [8] 0.042

RRAS (UniProt P10301)
inactive: lapatinib -0.078 | pictilisib -0.01 | crizotinib 0.011 | [1] -0.07 | duvelisib -0.022 | gandotinib -0.032 | tozasertib 0.013 | doramapimod 0.027 | bafetinib -0.028 | [2] -0.01 | nilotinib -0.007 | [3] -0.006 | dasatinib 0.018 | [4] -0.001 | [5] -0.02 | quisinostat 0.009 | tipifarnib -0.008 | [6] 0.025 | [7] 0.005 | [8] 0

(list continues)

RPRD1A (UniProt Q96P16)
inactive: lapatinib -0.041 | pictilisib -0.017 | crizotinib -0.009 | [1] 0.057 | duvelisib 0.029 | gandotinib -0.023 | tozasertib -0.01 | doramapimod 0.056 | bafetinib -0.02 | [2] 0.007 | nilotinib 0.08 | [3] 0.032 | dasatinib -0.01 | [4] 0.023 | [5] 0.008 | quisinostat -0.043 | tipifarnib -0.015 | [6] 0.018 | [7] -0.034 | [8] -0.016

RPLP0P6 (UniProt Q8NHW5)
active: bafetinib 0.274
inactive: lapatinib 0.003 | pictilisib 0.033 | crizotinib -0.013 | [1] 0.014 | duvelisib 0.016 | gandotinib -0.013 | tozasertib -0.005 | doramapimod 0.001 | [2] 0.034 | nilotinib 0.01 | [3] -0.027 | dasatinib 0.018 | [4] 0.001 | [5] 0.026 | quisinostat -0.049 | tipifarnib -0.02 | [6] 0.002 | [7] 0.005 | [8] -0.016

RPP25L (UniProt Q8N5L8)
inactive: lapatinib 0.056 | pictilisib -0.093 | crizotinib -0.044 | [1] 0.137 | duvelisib 0.022 | gandotinib 0.153 | tozasertib -0.068 | doramapimod 0.021 | bafetinib -0.016 | [2] 0.034 | nilotinib 0.038 | [3] -0.022 | dasatinib -0.055 | [4] -0.04 | [5] -0.07 | quisinostat -0.088 | tipifarnib 0.018 | [6] -0.041 | [7] 0.029 | [8] -0.003

RRP12 (UniProt Q5JTH9)
inactive: lapatinib -0.021 | pictilisib -0.011 | crizotinib -0.061 | [1] 0.018 | duvelisib 0.023 | gandotinib -0.077 | tozasertib 0.003 | doramapimod -0.004 | bafetinib -0.071 | [2] 0.032 | nilotinib -0.04 | [3] 0.027 | dasatinib -0.009 | [4] -0.003 | [5] 0.026 | quisinostat -0.032 | tipifarnib -0.003 | [6] 0.06 | [7] 0 | [8] 0.023

RPN1 (UniProt P04843)
inactive: lapatinib -0.04 | pictilisib -0.011 | crizotinib -0.015 | [1] -0.041 | duvelisib -0.004 | gandotinib -0.006 | tozasertib 0.003 | doramapimod -0.008 | bafetinib -0.04 | [2] 0.055 | nilotinib 0.013 | [3] -0.028 | dasatinib -0.042 | [4] 0.008 | [5] -0.025 | quisinostat 0.002 | tipifarnib -0.035 | [6] 0 | [7] 0.015 | [8] -0.01
